Experiment: Current-voltage characteristics of solid state dye-sensitized solar cell with the HTM
Details: sDSSC, Z907 dye, AM 1.5 G; for FF / PCE / VOC: 100 mW cm^−2; for Jsc: 100 mW cm^−2, active area 0.16 cm^2

Compound	FF	PCE [%]	VOC [V]	Jsc [mA cm^−2]
COc1ccc(N(c2ccc(OC)c(C)c2)c2ccc3c(c2)C2(c4cc(N(c5ccc(OC)c(C)c5)c5ccc(OC)c(C)c5)ccc4-3)c3cc(N(c4ccc(OC)c(C)c4)c4ccc(OC)c(C)c4)ccc3-c3ccc(N(c4ccc(OC)c(C)c4)c4ccc(OC)c(C)c4)cc32)cc1C [Example 1, 2,2′,7,7′-tetrakis-(N,N′-di-4-methoxy-3-methylphenylamine)-9,9′-spirobifluorene]	0.669	1.43	0.787	2.74
COc1ccc(N(c2ccc(OC)cc2)c2ccc3c(c2)C2(c4cc(N(c5ccc(OC)cc5)c5ccc(OC)cc5)ccc4-3)c3cc(N(c4ccc(OC)cc4)c4ccc(OC)cc4)ccc3-c3ccc(N(c4ccc(OC)cc4)c4ccc(OC)cc4)cc32)cc1 [Example 2, 2,2′,7,7′-tetrakis-(N,N′-di-4-methoxyphenylamine)-9,9′-spirobifluorene]	0.532	1.45	0.744	3.67
COc1c(C)cc(N(c2cc(C)c(OC)c(C)c2)c2ccc3c(c2)C2(c4cc(N(c5cc(C)c(OC)c(C)c5)c5cc(C)c(OC)c(C)c5)ccc4-3)c3cc(N(c4cc(C)c(OC)c(C)c4)c4cc(C)c(OC)c(C)c4)ccc3-c3ccc(N(c4cc(C)c(OC)c(C)c4)c4cc(C)c(OC)c(C)c4)cc32)cc1C [Example 3]	0.493	0.69	0.734	1.92

— patent publication US9997714B2, “Hole transport material” (MERCK PATENT GMBH, priority 2013, dated 2018)
